Measurements as given in PMC9130328.
No constants are given. Whether binding was seen depends on the method and setting. In cells and extracts the contact can be indirect. Some entries that bind do so weakly or less than the wild type. Each block holds one binder with its values, some of them ahead of it.

Experiments:
[1] = molecular target: T1, RANK (mouse (endogenous in bone marrow-derived osteoclasts)) (UniProt O35305); test: co-IP; RANKL-induced osteoclasts (30 ng/ml M-CSF and 50 ng/ml RANKL, 5 days) lysed in RIPA; total protein incubated with anti-RANK or Ano1 antibody 2 h at 4 °C, Protein A/G agarose, immunoblot for RANK, Ano1 or TRAF6; some samples treated from day 3 with Benzbromarone (10 μM), Ano1 siRNA or negative control, Ano1 plasmid or mutant Ano1 plasmid
T1 sequence: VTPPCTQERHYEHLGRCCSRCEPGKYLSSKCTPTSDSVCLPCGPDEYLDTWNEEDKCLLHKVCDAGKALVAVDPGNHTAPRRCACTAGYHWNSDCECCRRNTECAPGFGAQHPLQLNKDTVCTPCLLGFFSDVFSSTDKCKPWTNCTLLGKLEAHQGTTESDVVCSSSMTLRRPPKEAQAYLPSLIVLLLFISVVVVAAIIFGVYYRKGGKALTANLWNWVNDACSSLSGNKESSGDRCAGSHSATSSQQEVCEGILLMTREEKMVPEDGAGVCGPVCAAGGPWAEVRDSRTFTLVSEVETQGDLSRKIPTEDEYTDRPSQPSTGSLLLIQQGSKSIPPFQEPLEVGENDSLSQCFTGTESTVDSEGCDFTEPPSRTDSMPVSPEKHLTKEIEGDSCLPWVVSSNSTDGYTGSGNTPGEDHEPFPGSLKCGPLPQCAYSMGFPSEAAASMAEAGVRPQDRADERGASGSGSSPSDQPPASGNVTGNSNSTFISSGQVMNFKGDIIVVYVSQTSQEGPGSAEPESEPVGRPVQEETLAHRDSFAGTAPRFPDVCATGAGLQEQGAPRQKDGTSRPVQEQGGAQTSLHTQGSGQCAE

[2] = molecular target: T1, RANK (mouse (endogenous in bone marrow-derived osteoclasts)); test: condition: only without RANKL stimulation (M-CSF only); co-IP; control cells treated only with 30 ng/ml M-CSF for 5 days (no RANKL), lysed in RIPA; anti-RANK or Ano1 antibody, Protein A/G agarose, immunoblot

binding [1]: binds
binding [2]: no binding
B1: Anoctamin 1 (protein, UniProt Q8BHY3 1-960)
chain: MRVPEKYSTLPAEDRSVHIVNICAIEDLGYLPSEGTLLNSLSVDPDAECKYGLYFRDGKRKVDYILVYHHKRASGSRTLARRGLQNDMVLGTRSVRQDQPLPGKGSPVDAGSPEVPMDYHEDDKRFRREEYEGNLLEAGLELENDEDTKIHGVGFVKIHAPWHVLCREAEFLKLKMPTKKVYHISETRGLLKTINSVLQKITDPIQPKVAEHRPQTTKRLSYPFSREKQHLFDLTDRDSFFDSKTRSTIVYEILKRTTCTKAKYSMGITSLLANGVYSAAYPLHDGDYEGDNVEFNDRKLLYEEWASYGVFYKYQPIDLVRKYFGEKVGLYFAWLGAYTQMLIPASIVGVIVFLYGCATVDENIPSMEMCDQRYNITMCPLCDKTCSYWKMSSACATARASHLFDNPATVFFSVFMALWAATFMEHWKRKQMRLNYRWDLTGFEEEEEAVKDHPRAEYEARVLEKSLRKESRNKETDKVKLTWRDRFPAYFTNLVSIIFMIAVTFAIVLGVIIYRISTAAALAMNSSPSVRSNIRVTVTATAVIINLVVIILLDEVYGCIARWLTKIEVPKTEKSFEERLTFKAFLLKFVNSYTPIFYVAFFKGRFVGRPGDYVYIFRSFRMEECAPGGCLMELCIQLSIIMLGKQLIQNNLFEIGIPKMKKFIRYLKLRRQSPSDREEYVKRKQRYEVDFNLEPFAGLTPEYMEMIIQFGFVTLFVASFPLAPLFALLNNIIEIRLDAKKFVTELRRPVAIRAKDIGIWYNILRGVGKLAVIINAFVISFTSDFIPRLVYLYMYSQNGTMHGFVNHTLSSFNVSDFQNGTAPNDPLDLGYEVQICRYKDYREPPWSEHKYDISKDFWAVLAARLAFVIVFQNLVMFMSDFVDWVIPDIPKDISQQIHKEKVLMVELFMREEQGKQQLLDTWMEKEKPRDVPCNNHSPTTHPEAGDGSPVPSYEYHGDAL

binding [1]: binds
B2: Ano1 (overexpressed from plasmid, wild type) (protein, UniProt Q8BHY3 1-960)
chain: B1 chain

binding [1]: binds
B3: tumor necrosis factor (TNF) receptor-associated factor 6 (protein, UniProt P70196 1-530)
chain: MSLLNCENSCGSSQSSSDCCAAMAASCSAAVKDDSVSGSASTGNLSSSFMEEIQGYDVEFDPPLESKYECPICLMALREAVQTPCGHRFCKACIIKSIRDAGHKCPVDNEILLENQLFPDNFAKREILSLTVKCPNKGCLQKMELRHLEDHQVHCEFALVNCPQCQRPFQKCQVNTHIIEDCPRRQVSCVNCAVSMAYEEKEIHDQSCPLANIICEYCGTILIREQMPNHYDLDCPTAPIPCTFSVFGCHEKMQRNHLARHLQENTQLHMRLLAQAVHNVNLALRPCDAASPSRGCRPEDPNYEETIKQLESRLVRQDHQIRELTAKMETQSMYVGELKRTIRTLEDKVAEMEAQQCNGIYIWKIGNFGMHLKSQEEERPVVIHSPGFYTGRPGYKLCMRLHLQLPTAQRCANYISLFVHTMQGEYDSHLPWPFQGTIRLTILDQSEALIRQNHEEVMDAKPELLAFQRPTIPRNPKGFGYVTFMHLEALRQGTFIKDDTLLVRCEVSTRFDMGGLRKEGFQPRSTDAGV
